Measurements from patent publication US20190031754A1.
Positions count from the first letter of the chain named. Results are given in words; binding and its absence hold for the method and conditions named. Some entries that bind do so weakly or less than the wild type.

By UniProt entry, the sequences of proteins in these tests, tags left out. Where a name states a change or a piece, a line headed by the entry shows the natural chain unless it says otherwise.
UniProt Q01974: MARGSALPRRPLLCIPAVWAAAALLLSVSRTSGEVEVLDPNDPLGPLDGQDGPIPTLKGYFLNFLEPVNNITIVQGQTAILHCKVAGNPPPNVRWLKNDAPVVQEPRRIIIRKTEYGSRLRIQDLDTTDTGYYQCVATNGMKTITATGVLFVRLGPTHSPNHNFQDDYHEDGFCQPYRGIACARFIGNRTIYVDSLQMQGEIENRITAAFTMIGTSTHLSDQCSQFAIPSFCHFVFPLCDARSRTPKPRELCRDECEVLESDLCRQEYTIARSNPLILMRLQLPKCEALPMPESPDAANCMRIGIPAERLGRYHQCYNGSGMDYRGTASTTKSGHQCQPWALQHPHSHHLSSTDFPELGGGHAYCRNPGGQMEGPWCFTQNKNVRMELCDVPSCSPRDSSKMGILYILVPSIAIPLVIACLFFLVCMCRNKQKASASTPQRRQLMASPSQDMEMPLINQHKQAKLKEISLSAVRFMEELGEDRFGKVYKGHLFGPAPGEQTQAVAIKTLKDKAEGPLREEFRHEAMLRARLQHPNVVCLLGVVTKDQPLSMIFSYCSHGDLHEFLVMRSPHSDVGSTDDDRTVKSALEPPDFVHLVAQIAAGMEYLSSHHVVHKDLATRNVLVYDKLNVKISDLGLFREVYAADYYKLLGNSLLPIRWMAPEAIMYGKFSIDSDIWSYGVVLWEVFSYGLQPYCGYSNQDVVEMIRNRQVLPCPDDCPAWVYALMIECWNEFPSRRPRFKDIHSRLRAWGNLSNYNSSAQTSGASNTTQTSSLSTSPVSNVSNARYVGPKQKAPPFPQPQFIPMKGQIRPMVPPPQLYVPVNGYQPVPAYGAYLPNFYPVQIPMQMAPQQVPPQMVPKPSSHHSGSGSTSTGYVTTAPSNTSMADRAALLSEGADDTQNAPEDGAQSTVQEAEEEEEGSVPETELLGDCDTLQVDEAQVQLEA
UniProt Q9Z138: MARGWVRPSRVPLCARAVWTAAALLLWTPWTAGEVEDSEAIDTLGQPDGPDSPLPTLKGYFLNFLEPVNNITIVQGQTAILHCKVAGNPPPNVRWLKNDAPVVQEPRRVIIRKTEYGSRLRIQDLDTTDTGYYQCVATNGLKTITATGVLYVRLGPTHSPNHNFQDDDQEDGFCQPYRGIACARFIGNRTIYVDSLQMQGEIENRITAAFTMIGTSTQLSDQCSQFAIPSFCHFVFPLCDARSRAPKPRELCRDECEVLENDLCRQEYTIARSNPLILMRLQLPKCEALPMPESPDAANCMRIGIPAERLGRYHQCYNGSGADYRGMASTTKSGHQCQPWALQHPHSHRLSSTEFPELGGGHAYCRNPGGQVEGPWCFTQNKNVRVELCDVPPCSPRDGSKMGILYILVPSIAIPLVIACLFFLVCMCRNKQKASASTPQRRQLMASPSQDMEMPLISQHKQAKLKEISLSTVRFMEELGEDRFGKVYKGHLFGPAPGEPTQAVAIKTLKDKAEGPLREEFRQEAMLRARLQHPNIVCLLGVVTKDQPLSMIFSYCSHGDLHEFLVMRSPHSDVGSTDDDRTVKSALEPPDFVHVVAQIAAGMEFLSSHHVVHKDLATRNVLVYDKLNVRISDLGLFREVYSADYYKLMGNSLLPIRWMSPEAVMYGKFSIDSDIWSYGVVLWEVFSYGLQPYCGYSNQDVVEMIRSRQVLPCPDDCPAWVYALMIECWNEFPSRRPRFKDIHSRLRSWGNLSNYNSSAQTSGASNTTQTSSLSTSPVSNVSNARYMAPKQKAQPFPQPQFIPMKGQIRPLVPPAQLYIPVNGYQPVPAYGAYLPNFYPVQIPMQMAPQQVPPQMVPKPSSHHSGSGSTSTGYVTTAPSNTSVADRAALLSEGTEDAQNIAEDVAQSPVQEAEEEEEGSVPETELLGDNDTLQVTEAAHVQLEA

B1: ERR2-Top35 (mAb130) (antibody, V domains shown)
VH: QSVKESEGGLFKPMDTLTLTCTVSGFSLNTYGVSWVRQAPGNGLEWIGAVGSSGATNYASWAKSRSTITRNTNENTVTLKMTSLTAADTATYFCARDGYYSSGWGPYFSIWGPGTLVTVSS
VL: SFVLTQPASVQVNLGQTVSLTCTAETLRSSYASWYQQKPGQAPVLLIYRDTSRPSGVPDRFSGSSSGNTATLTISGAQAGDEADYYCATSDGSGSRYYVFGGGTQLTVTG
B2: XBR2-327 (mAb007) (antibody, human IgG1, V domains shown)
VH: QEQLKESGGGLFKPTDTLTLTCTVSGFSLSSGAISWVRQAPGNGLEYIGFVNSLGNTYYANWAKSRSAITRNTNENTVTLKMTSLAAADTATYFCAKDYGNWAFDPWGPGTLVTVSS
VL: DPVLTQTPSSVSAAVGGTVAINCQASQSISSYLSWYQQKPGQPPKLLIYGASKLASGVPSRFSGSGSGTEYTLTISGVQREDAATYYCLGGYASASYRTAFGGGTKLEIK
B3: ERR2-302 (mAb004) (antibody, human IgG1, V domains shown)
VH: QKQLVESGGGLVKPGGSLTLTCTVSGFSLSSYAIGWVRQAPGNGLEWIGIINSYGSTYYASWAKSRSTITRNTNLNTVTLKMTSLTAADTATYFCARSPYGYVSAWGYHRLDLWGQGTLVTISS
VL: SYELTQLPSVSVSLGQTARITCGGASIGSKVVHWYQQKPGLAPGLLIYDDDERPSGVPDRFSGSNSGDTATLTISGAQAGDEAEYYCQLWDGSDVVFGGGTQLTVTG
B4: ERR2-308 (mAb037) (antibody, human IgG1, V domains shown)
VH: QEQLEESGGRLVTPGTPLTLTCAVSGFSLSNYAMGWVRQAPGEGLEYIGWISAGGGAYYASWVNGRFTISKTSSTVDLKMTSLTAADTATYFCARGASNGCDLWGPGTLVTVSS
VL: DPMLTQTPSSVSAVVGGTVTIKCQASQSITSWLSWYQQKPGQPPKLLIYGASHLASGVPSRFKGSGYGTEFTLTISGIQREDAATYYCLGGYSNSDIVFGGGTELEIL
B5: ERR2-316 (mAb005) (antibody, human IgG1, V domains shown)
VH: QKQLVESGGRLVTPGGSLTLTCTVSGFSLSKYGVSWVRQAPGSGLEYIGTIGGSGTSYYASWAKSRSTITRNTNLNTVTLKMTSLTAADTATYFCARYFGWNTGFDIWGPGTLVTISS
VL: DPVMTQTPSSVSEPVGGTVTIKCQASQSISNALAWYQQKPGQPPKRLIYKASTPASGVPSRFKGSRSGTEYTLTISGVQREDAATYYCLGFSVVSNDGWAFGAGTNVEIK
B6: ERR2-317 (mAb006) (antibody, human IgG1, V domains shown)
VH: QSLEESGGRLVTPGTPLTLTCTASGFSLSSYDMIWVRQAPGKGLEYIGIINAGGNTYYASWAKGRFTISRTSTTVDLKMTSPTTEDTATYFCARGSSWTGDIWGPGTLVTVSS
VL: B2 VL with V11T, A20T, N22K, L46Q, G50A, K53T, S63K, R98Q, L107V

What was measured:
[1] = biological target: recombinant human twin strep-tagged ROR2 extracellular domain (human) (UniProt Q01974); experiment: ELISA on coated twin-strep human ROR2 ECD (FIG. 14)
[2] = biological target: recombinant murine twin strep-tagged ROR2 extracellular domain (mouse) (UniProt Q9Z138); experiment: ELISA on coated twin-strep mouse ROR2 ECD (FIG. 14)
[3] = biological target: recombinant cynomolgus twin strep-tagged ROR2 extracellular domain (cynomolgus monkey); experiment: ELISA on coated twin-strep cynomolgus ROR2 ECD (FIG. 14)
[4] = biological target: recombinant cynomolgus twin strep-tagged ROR2 extracellular domain (cynomolgus monkey); experiment: ELISA, coated twin-strep ROR2 ECD 2 µg/mL, IgG1 from 500 ng/mL in 4-fold dilutions, anti-human Fc HRP, OD 490 nm
[5] = biological target: recombinant murine twin strep-tagged ROR2 extracellular domain (mouse) (UniProt Q9Z138); experiment: as above
[6] = biological target: recombinant human twin strep-tagged ROR2 extracellular domain (human) (UniProt Q01974); experiment: ELISA, coated twin-strep ROR2 ECD 2 µg/mL, IgG1 from 500 ng/mL in 4-fold dilutions, anti-human Fc HRP, OD 490 nm [C]

Row | Binder | binding [1] | binding [2] | binding [3] | binding [4] | binding [5] | binding [6]
1 | B1 | binds | binds | binds | binds | binds | binds
2 | B2 | – | – | binds | binds | – | –
3 | B3 | binds | binds | binds | – | binds | –
4 | B4 | – | – | binds | – | – | –
5 | B5 | – | – | binds | – | – | –
6 | B6 | – | – | binds | – | – | –
